In experiment [1] the target is human CXCR2 on HEK293 cells (human) (UniProt P25025). The experiment is described as follows: flow cytometry on cells; competition: biotinylated chemokine at its EC50 with varying antagonist on HEK293 cells expressing CXCR1 or CXCR2; the chemokine and the receptor that are blocked; only the binder purified. (In general: A flow cytometer gives signals particle by particle.)

Protein sequences, listed by entry. Tags and fused reporters are not part of them. Residues count along the entry.
UniProt P25025: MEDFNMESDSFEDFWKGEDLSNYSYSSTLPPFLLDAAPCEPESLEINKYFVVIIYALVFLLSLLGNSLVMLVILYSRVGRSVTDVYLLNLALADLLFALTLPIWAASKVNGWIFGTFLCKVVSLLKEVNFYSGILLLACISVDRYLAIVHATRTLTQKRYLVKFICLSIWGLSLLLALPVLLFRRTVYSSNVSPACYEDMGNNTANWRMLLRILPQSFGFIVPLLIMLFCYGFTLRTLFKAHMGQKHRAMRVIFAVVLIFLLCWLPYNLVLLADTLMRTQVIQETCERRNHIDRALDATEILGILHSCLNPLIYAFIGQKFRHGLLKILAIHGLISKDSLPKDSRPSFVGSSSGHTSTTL
UniProt P09341, residues 35-107: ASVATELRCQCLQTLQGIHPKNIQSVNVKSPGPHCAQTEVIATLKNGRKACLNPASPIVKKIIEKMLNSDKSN

Experiment [2] has the same target. The experiment can be described thus: flow cytometry on cells; HEK293 cells stably expressing human CXCR1 or CXCR2, biotinylated chemokine 0.03 to 300 nM, 30 min at 4 °C, CBA buffer (PBS pH 7.4, 1% BSA, 0.1% NaN3), Alexa Fluor 647 streptavidin; only the binder purified.

Data on one substance can be found in paper PMC5899157.

Results are given in words; binding and its absence hold for the method and conditions named. Some entries that bind do so weakly or less than the wild type.

For “biotinylated hCXCL1 (^NCXCL-G2-AviTag^C) (from UniProt P09341 35-107) (ligand)”, the binding result in experiment [1] and in experiment [2] was “binds” throughout.
